Record: PubChem BioAssay AID493246 (Drosophila RNAi Screening Center, 2011)

- Test: 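Genome-wide search for dsRNAs that reduce cell number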 (primary screen)
- Cells: Drosophila Kc and S2R+ cells
- Reagents: long dsRNA against Drosophila genes
- Detection: 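Raw, unnormalised count of remaining cells in each well; per-plate z-scores of cell number underlie the calls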
- Reading the numbers: Kc cell number and S2R+ cell number: higher = more cells remaining
- Call rule: 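Counted as a hit if cell number falls by a z-score of at least 3 within its plate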
The screen tested about 21,000 reagents; this is an unselected part of those that have a named target and a result. Over the whole deposit, 429 (2%) were called active. 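Values are raw and not normalised between plates; calls rest on per-plate z-scores that were not deposited.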 A plus sign joins genes that one reagent is predicted to hit. Not stated in the record: the amount of reagent, the time to read-out.

zf30C [DRSC03641]
- Kc cell number, rep 1: 1.52e6
- Kc cell number, rep 2: 1.49e6
- S2R+ cell number, rep 1: 1.35e6
- S2R+ cell number, rep 2: 1.24e6
- outcome: inactive

CG9184 [DRSC08636]
- Kc cell number, rep 1: 1.41e6
- Kc cell number, rep 2: 1.76e6
- S2R+ cell number, rep 1: 1.04e6
- S2R+ cell number, rep 2: 1.20e6
- outcome: inactive

CG8924 [DRSC20122]
- Kc cell number, rep 1: 3.83e5
- S2R+ cell number, rep 1: 6.57e5
- outcome: inactive

CG12617 [DRSC02176]
- Kc cell number, rep 1: 1.50e6
- Kc cell number, rep 2: 1.62e6
- S2R+ cell number, rep 1: 1.30e6
- S2R+ cell number, rep 2: 3.28e5
- outcome: inactive

CG6337 [DRSC06977]
- Kc cell number, rep 1: 1.56e6
- Kc cell number, rep 2: 1.62e6
- S2R+ cell number, rep 1: 1.33e6
- S2R+ cell number, rep 2: 1.45e6
- outcome: inactive

CG31949 [DRSC00110]
- Kc cell number, rep 1: 1.49e6
- Kc cell number, rep 2: 1.53e6
- S2R+ cell number, rep 1: 9.87e5
- S2R+ cell number, rep 2: 1.14e6
- outcome: inactive

Ptp36E [DRSC03021]
- Kc cell number, rep 1: 1.78e6
- Kc cell number, rep 2: 1.97e6
- S2R+ cell number, rep 1: 1.26e6
- S2R+ cell number, rep 2: 1.38e6
- outcome: inactive

brm [DRSC11330]
- Kc cell number, rep 1: 1.12e6
- Kc cell number, rep 2: 1.08e6
- S2R+ cell number, rep 1: 1.15e6
- S2R+ cell number, rep 2: 1.29e6
- outcome: inactive

Arms [DRSC03856]
- Kc cell number, rep 1: 5.42e5
- S2R+ cell number, rep 1: 9.33e5
- outcome: inactive

Arms [DRSC03857]
- Kc cell number, rep 1: 5.52e5
- S2R+ cell number, rep 1: 8.45e5
- outcome: inactive

Arms [DRSC04052]
- Kc cell number, rep 1: 1.44e6
- Kc cell number, rep 2: 1.60e6
- S2R+ cell number, rep 1: 1.11e6
- S2R+ cell number, rep 2: 1.10e6
- outcome: inactive

Arms [DRSC04256]
- Kc cell number, rep 1: 1.05e6
- Kc cell number, rep 2: 1.17e6
- S2R+ cell number, rep 1: 1.02e6
- S2R+ cell number, rep 2: 3.23e5
- outcome: active

corn [DRSC11021]
- Kc cell number, rep 1: 1.33e6
- Kc cell number, rep 2: 1.38e6
- S2R+ cell number, rep 1: 1.28e6
- S2R+ cell number, rep 2: 1.20e6
- outcome: inactive

CG7387 [DRSC10833]
- Kc cell number, rep 1: 1.29e6
- Kc cell number, rep 2: 1.34e6
- S2R+ cell number, rep 1: 1.41e6
- S2R+ cell number, rep 2: 1.25e6
- outcome: inactive

Ctr1B + Poxm [DRSC16245]
- Kc cell number, rep 1: 1.54e6
- Kc cell number, rep 2: 1.68e6
- S2R+ cell number, rep 1: 1.16e6
- S2R+ cell number, rep 2: 1.28e6
- outcome: inactive

Nepl10 [DRSC07212]
- Kc cell number, rep 1: 1.74e6
- Kc cell number, rep 2: 1.89e6
- S2R+ cell number, rep 1: 1.42e6
- S2R+ cell number, rep 2: 1.60e6
- outcome: inactive

Spn42Da [DRSC05025]
- Kc cell number, rep 1: 1.55e6
- Kc cell number, rep 2: 1.57e6
- S2R+ cell number, rep 1: 1.29e6
- S2R+ cell number, rep 2: 1.44e6
- outcome: inactive

dpr10 [DRSC09015]
- Kc cell number, rep 1: 1.35e6
- Kc cell number, rep 2: 1.44e6
- S2R+ cell number, rep 1: 1.12e6
- S2R+ cell number, rep 2: 1.22e6
- outcome: inactive

dpr10 [DRSC09018]
- Kc cell number, rep 1: 1.53e6
- Kc cell number, rep 2: 1.50e6
- S2R+ cell number, rep 1: 1.21e6
- S2R+ cell number, rep 2: 1.31e6
- outcome: inactive

dpr10 [DRSC10159]
- Kc cell number, rep 1: 1.27e6
- Kc cell number, rep 2: 1.31e6
- S2R+ cell number, rep 1: 1.27e6
- S2R+ cell number, rep 2: 1.29e6
- outcome: inactive

dpr10 [DRSC10160]
- Kc cell number, rep 1: 1.42e6
- Kc cell number, rep 2: 1.54e6
- S2R+ cell number, rep 1: 1.34e6
- S2R+ cell number, rep 2: 1.37e6
- outcome: inactive

3 entries already listed, arranged by “Kc cell number, rep 1”, high to low.
zf30C [DRSC03641]
- Kc cell number, rep 1: 1.52e6
- Kc cell number, rep 2: 1.49e6
- S2R+ cell number, rep 1: 1.35e6
- S2R+ cell number, rep 2: 1.24e6
- outcome: inactive

CG9184 [DRSC08636]
- Kc cell number, rep 1: 1.41e6
- Kc cell number, rep 2: 1.76e6
- S2R+ cell number, rep 1: 1.04e6
- S2R+ cell number, rep 2: 1.20e6
- outcome: inactive

CG8924 [DRSC20122]
- Kc cell number, rep 1: 3.83e5
- S2R+ cell number, rep 1: 6.57e5
- outcome: inactive
